Among the data in patent US12667572B2, “Tricyclic compounds useful in the treatment of cancer, autoimmune and inflammatory disorders” (SCHRÖDINGER, INC., priority 2021, dated 2026) are IC50 values, retold here.

Sequences of proteins named here, by UniProt entry; tags and fusion partners are left off.
UniProt Q9UDY8, whole entry: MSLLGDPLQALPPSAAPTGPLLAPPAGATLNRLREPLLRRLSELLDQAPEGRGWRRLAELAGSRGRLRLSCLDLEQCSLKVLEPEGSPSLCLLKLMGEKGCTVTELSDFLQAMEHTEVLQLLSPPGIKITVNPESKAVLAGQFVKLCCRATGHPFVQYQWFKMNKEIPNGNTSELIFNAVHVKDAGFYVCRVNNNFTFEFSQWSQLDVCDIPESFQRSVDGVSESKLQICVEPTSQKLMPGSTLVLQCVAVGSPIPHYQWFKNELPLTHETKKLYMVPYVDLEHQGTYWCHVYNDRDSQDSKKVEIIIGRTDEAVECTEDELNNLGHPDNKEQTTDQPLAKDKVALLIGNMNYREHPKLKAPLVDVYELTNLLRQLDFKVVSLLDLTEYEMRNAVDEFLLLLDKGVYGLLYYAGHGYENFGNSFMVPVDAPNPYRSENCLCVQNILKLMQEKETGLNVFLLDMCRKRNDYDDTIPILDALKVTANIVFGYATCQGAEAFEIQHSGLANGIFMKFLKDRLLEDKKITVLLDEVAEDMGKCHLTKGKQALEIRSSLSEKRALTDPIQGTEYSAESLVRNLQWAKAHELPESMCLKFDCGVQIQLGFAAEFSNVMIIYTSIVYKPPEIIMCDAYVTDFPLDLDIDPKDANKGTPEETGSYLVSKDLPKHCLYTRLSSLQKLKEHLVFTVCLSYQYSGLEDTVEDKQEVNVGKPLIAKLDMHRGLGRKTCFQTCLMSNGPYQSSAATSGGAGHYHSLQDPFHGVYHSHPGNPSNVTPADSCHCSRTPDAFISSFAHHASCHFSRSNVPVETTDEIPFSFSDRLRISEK

Structures are written as SMILES. The structures given here were assigned with low confidence; some may be wrong.

This assay has as its target full-length MALT1 protein His-MALT1(1-824) (Homo sapiens, UniProt Q9UDY8). Kind of assay: MALT1 protease assay, Assay 2 (1 nM MALT1, Ac-LRSR-AMC substrate). As to conditions: read-out: MALT1 IC50 [nM] Assay 2; 1 nM MALT1, 50 μM Ac-LRSR-AMC, 2 h pre-incubation, 8 hr incubation at RT. The procedure:
MALT1 protease activity was assessed in an in vitro assay using a tetrapeptide as substrate and full-length MALT1 protein His-MALT1(1-824) purified from baculovirus-infected insect cells. The tetrapeptide substrate is Ac-LRSR-AMC (SM Biochemicals) with Km measured at around 100 μM.
The final assay buffer includes 1 nM (Assay 2) or 2 nM (Assay 1) of MALT1 full-length protein, 50 μM Ac-LRSR-AMC substrate, 50 mM Tris pH 7.5, 600 mM Sodium Citrate, 1 mM DTT, 1 mM EDTA, and 0.05% BSA in 384-well plate format using black microtiter square well plates (Optiplate 384-F, Perkin Elmer).
Test compounds were dissolved in 100% DMSO at stock of 10 mM, with final DMSO concentration 0.1%. Test compounds were pre-incubated with MALT1 protein for 2 h at room temperature. Substrate was added after the pre-incubation and fluorescence signal was measured using Envision at excitation 355 nm and emission 460 nm after 8 hr incubation at RT. Increase in the assay signal was linear over this period and proportional with increase in the enzyme content.
The fluorescence units were transformed to percentage of remaining activity by using the high control (HC, median of fluorescence signal from wells containing MALT1 protein, substrate, and DMSO) and low control (LC, median of fluorescence signal from wells with substrate only) with the formula below: […]

Regarding `CC1(C)CC(C(=O)Nc2cnc(-c3nnnn3CCO)c(Cl)c2)c2cnc3cc(Cl)nn3c21` (stereo not shown), the IC50 is 100 to 1000 nM.

Usually IC50 stands for the concentration needed to halve the response being measured.
